Results on 26 targets are retold here after the supplement of paper PMC7666118.

Protein sequences, listed by entry. Tags and fused reporters are not part of them. Lines headed by an entry give the natural chain unless they say otherwise; changes in a name come on top.
UniProt Q9BW62: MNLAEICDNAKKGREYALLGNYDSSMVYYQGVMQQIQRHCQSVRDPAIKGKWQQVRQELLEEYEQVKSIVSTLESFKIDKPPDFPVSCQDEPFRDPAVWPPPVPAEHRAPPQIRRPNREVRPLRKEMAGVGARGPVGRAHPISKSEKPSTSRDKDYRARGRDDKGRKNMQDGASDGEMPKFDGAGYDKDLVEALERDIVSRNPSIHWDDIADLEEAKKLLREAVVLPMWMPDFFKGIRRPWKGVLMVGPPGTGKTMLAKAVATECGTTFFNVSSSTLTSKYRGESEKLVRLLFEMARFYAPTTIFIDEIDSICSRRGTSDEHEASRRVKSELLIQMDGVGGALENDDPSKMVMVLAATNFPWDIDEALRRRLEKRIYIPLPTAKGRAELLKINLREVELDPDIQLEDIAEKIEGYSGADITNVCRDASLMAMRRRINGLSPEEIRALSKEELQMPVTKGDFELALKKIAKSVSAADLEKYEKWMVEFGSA
UniProt Q15046, whole entry, looked up: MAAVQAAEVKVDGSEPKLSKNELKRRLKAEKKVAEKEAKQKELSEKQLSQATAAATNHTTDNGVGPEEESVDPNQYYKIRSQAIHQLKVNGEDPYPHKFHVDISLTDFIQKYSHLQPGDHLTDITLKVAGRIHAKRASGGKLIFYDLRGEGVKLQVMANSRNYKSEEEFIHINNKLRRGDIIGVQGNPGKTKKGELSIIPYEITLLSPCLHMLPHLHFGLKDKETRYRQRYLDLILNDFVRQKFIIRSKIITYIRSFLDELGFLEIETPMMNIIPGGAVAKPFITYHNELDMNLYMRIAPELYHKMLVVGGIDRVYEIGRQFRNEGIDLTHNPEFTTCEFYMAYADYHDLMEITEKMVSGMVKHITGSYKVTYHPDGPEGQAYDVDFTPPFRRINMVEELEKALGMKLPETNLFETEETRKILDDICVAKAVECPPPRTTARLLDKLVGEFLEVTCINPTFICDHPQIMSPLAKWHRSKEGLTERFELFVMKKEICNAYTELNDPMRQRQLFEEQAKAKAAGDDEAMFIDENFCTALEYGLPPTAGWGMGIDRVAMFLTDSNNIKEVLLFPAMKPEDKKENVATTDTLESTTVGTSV
UniProt P14316: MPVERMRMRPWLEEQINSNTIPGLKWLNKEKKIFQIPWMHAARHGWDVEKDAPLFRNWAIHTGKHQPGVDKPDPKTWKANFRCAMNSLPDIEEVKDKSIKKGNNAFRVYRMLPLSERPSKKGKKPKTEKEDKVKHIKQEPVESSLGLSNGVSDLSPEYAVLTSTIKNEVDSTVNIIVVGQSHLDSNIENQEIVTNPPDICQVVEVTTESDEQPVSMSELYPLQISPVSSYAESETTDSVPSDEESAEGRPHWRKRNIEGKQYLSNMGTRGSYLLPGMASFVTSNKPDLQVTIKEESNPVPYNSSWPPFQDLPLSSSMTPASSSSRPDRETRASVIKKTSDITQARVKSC
UniProt Q96RY7: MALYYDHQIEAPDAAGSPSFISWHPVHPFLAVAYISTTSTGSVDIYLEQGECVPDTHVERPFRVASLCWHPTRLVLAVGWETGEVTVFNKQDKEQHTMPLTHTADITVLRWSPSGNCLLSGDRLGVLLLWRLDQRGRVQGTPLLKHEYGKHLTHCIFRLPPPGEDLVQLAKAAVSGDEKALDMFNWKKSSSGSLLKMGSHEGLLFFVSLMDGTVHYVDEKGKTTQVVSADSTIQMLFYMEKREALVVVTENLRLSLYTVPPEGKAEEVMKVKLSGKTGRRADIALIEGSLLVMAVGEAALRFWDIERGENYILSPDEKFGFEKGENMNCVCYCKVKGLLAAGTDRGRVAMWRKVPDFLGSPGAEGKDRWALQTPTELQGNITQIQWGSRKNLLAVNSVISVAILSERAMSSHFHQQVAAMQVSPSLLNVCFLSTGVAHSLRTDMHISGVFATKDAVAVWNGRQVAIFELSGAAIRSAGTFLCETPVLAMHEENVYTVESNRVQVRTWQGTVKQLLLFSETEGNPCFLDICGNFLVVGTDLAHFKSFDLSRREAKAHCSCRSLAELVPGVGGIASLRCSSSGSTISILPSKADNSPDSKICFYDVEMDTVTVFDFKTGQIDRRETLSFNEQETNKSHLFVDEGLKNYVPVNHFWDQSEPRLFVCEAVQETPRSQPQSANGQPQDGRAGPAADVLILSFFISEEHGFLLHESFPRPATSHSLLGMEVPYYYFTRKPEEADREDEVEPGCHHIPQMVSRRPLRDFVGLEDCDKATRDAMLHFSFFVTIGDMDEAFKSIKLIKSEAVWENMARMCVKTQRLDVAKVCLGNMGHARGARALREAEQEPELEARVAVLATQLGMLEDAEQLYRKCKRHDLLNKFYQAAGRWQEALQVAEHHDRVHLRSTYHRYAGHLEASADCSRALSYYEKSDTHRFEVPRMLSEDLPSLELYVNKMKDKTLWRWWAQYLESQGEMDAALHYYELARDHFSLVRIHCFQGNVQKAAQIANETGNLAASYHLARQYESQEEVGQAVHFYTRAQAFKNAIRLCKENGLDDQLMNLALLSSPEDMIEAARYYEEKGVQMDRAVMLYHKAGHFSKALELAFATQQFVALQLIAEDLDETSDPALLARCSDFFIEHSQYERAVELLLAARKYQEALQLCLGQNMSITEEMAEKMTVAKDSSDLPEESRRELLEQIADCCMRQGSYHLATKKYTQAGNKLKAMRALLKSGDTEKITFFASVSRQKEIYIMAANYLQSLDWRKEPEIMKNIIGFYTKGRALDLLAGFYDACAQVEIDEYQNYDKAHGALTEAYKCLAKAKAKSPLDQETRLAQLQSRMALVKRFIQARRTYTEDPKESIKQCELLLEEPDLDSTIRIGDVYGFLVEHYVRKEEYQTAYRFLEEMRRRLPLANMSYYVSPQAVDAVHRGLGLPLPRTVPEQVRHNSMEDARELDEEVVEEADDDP
UniProt Q15051: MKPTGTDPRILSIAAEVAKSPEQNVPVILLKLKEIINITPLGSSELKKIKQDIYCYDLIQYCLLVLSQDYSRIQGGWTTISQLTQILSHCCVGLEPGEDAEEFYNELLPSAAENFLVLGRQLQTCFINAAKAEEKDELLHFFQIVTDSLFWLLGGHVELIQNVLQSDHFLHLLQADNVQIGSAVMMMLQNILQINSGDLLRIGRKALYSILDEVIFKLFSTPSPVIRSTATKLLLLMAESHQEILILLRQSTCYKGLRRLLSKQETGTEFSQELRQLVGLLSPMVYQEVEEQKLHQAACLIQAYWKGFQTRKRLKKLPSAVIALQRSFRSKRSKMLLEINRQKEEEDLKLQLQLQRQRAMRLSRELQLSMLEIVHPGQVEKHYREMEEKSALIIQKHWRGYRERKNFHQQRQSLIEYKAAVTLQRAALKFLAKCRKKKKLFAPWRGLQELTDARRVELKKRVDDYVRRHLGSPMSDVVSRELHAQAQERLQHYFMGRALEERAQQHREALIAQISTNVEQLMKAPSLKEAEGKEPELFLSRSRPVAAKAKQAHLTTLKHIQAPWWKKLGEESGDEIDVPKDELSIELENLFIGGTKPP
UniProt Q14807: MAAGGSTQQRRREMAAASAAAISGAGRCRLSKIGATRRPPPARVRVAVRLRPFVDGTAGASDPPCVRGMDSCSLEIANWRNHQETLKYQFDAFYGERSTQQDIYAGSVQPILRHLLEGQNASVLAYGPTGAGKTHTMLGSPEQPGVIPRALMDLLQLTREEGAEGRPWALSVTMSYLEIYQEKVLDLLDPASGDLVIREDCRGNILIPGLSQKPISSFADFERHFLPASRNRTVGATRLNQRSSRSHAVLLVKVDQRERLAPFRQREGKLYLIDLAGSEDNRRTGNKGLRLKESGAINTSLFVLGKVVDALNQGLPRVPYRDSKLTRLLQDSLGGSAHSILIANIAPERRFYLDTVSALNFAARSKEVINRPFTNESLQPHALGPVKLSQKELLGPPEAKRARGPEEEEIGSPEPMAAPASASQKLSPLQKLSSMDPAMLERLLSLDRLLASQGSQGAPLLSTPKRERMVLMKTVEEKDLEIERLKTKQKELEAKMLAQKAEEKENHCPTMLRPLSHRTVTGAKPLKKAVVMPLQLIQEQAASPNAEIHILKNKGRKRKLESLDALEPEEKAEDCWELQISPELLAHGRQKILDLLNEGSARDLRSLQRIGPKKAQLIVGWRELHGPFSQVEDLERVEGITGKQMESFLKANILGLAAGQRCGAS
UniProt O15040: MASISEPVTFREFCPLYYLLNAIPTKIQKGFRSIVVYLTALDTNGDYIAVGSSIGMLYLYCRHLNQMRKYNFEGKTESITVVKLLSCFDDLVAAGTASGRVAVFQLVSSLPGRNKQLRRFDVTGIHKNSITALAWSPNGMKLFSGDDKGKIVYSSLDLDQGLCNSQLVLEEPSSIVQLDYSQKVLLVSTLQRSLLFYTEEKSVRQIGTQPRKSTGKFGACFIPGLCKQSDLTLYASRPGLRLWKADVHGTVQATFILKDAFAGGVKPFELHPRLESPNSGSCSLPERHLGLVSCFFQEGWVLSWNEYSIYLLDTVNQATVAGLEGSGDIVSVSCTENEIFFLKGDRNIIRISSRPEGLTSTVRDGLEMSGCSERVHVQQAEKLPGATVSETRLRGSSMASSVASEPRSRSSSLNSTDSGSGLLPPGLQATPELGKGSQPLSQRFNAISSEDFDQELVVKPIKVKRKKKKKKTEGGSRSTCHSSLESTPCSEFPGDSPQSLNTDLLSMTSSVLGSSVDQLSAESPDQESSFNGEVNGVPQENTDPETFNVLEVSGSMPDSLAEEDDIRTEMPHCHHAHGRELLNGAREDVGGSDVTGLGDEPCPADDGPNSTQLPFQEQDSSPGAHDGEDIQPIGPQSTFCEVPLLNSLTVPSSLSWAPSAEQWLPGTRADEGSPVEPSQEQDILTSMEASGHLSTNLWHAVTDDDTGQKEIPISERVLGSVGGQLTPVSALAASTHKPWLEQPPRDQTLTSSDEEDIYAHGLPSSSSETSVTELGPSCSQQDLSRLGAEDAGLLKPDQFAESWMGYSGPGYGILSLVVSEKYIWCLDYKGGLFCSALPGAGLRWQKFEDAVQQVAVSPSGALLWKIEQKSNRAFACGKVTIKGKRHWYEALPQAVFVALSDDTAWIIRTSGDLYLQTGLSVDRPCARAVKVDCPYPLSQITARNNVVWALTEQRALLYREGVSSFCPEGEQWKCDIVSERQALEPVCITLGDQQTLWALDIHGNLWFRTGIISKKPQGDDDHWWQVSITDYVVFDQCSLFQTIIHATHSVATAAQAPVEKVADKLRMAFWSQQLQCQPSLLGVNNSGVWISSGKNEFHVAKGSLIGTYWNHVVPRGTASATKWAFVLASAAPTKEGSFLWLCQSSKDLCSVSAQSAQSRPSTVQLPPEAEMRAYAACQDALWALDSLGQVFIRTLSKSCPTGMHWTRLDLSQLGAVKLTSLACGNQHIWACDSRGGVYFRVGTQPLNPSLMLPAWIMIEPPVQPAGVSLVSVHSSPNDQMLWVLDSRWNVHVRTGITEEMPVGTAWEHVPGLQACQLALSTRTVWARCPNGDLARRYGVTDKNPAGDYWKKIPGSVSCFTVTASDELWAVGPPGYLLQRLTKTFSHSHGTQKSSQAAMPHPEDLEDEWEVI
UniProt Q75QN2, whole entry: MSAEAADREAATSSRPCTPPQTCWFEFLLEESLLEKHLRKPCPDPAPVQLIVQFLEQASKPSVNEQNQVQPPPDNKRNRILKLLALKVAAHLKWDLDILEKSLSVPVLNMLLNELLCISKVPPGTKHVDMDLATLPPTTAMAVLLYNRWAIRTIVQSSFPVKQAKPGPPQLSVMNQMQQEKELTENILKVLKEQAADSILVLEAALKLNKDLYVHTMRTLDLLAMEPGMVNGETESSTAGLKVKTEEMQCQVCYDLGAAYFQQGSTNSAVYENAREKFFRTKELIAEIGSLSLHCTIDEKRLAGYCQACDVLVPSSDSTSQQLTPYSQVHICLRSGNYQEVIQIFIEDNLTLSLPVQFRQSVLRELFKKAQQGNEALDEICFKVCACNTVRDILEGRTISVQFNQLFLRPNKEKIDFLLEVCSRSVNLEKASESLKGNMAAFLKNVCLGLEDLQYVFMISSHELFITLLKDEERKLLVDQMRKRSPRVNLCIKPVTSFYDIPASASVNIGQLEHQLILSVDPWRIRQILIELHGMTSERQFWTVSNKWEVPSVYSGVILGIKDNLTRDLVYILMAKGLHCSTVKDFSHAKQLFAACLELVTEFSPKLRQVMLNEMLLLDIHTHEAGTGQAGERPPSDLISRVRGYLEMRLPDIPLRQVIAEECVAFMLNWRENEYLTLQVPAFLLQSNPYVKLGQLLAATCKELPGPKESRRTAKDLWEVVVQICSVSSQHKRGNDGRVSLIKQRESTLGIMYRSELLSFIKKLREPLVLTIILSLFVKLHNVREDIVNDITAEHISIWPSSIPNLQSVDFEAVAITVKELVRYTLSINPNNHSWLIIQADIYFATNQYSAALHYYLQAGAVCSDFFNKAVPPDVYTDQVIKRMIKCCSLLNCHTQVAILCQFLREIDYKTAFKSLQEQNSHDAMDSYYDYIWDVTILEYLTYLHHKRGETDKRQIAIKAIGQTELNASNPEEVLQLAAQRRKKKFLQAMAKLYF

This is one part of the list.

Compound in this assay: COc1ccc(Cn2ccc3cc(C)c(C(=O)NO)cc32)cc1
Put plainly: dose-dependent thermal stabilisation call (2D-TPP, DLPTP, 10% FDR) (binary (1 = stabilised)); higher = stabilised by the compound. The settings on record: system: HL-60 intact cells; concentration range 0.04-10 µM. The method, then:
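2D thermal proteome profiling in intact HL-60 cells treated with BRD-3811 (0, 0.04, 0.29, 2, 10 uM) for 90 min at 37 C, then heated 3 min at one of 12 temperatures (42-63.9 C). Soluble protein was quantified by TMT10 MS. The value is the DLPTP call of the paper: dose-dependent thermal stabilisation over all temperatures at 10% FDR (F-test of a dose-response against a flat model); one experiment, one call per tested protein.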
In the case of KATNAL1 (UniProt Q9BW62), the “dose-dependent thermal stabilisation call” value is inactive: 0.
As to KARS (UniProt Q15046), the “dose-dependent thermal stabilisation call” value is inactive: 0.
In the case of KIAA0391 (UniProt O15091) it was inactive: 0; in that of IRF2 (UniProt P14316), inactive: 0; in that of IFT140 (UniProt Q96RY7), inactive: 0.
The result for KIF2C (UniProt Q99661) reads inactive: 0; that for KIAA1949 (UniProt Q6NYC8), inactive: 0; that for KIAA1191 (UniProt Q96A73), inactive: 0.
In the case of KIF3A (UniProt Q9Y496) it was inactive: 0.
With IQCB1 (UniProt Q15051), the “dose-dependent thermal stabilisation call” value is inactive: 0.
For the target KLHDC5 (UniProt Q9P2K6), the “dose-dependent thermal stabilisation call” value is inactive: 0.
In the case of KIF22 (UniProt Q14807) it was inactive: 0; in that of KIAA0195 (UniProt Q12767), inactive: 0.
Turning to KIFC1 (UniProt Q9BW19), the “dose-dependent thermal stabilisation call” value was inactive: 0.
IFRD2 (UniProt Q12894): the “dose-dependent thermal stabilisation call” value was inactive: 0.
As for KPTN (UniProt Q9Y664), the “dose-dependent thermal stabilisation call” value is inactive: 0.
For KIAA1598 (UniProt A0MZ66), the “dose-dependent thermal stabilisation call” value was inactive: 0.
In the case of KIAA0329 (UniProt O15040) it was inactive: 0; in that of KIAA0907 (UniProt Q7Z7F0), inactive: 0; in that of INTS8 (UniProt Q75QN2), inactive: 0.
The result for IWS1 (UniProt Q96ST2) reads inactive: 0.
The result for IRS2 (UniProt Q9Y4H2) reads inactive: 0.
Regarding KIAA1524 (UniProt Q8TCG1), the “dose-dependent thermal stabilisation call” value is inactive: 0.
In the case of INTS7 (UniProt Q9NVH2) it was inactive: 0.
The result for KIAA1432 (UniProt Q4ADV7) reads inactive: 0.
In the case of IPO7 (UniProt O95373) it was inactive: 0.
